Data taken from article PMC11466185, “Mechanisms and efficacy of small molecule latency-promoting agents to inhibit HIV reactivation ex vivo” (JCI Insight, 2024).

System: HIV transcripts (PolyA, TatRev)
Experiment: Dose-response curves of LPAs: polyadenylated and multiply spliced HIV transcripts 24 hours after activation
Assay type: cell-based
Conditions: Human immunodeficiency virus 1, PBMC, reduction in PolyA HIV transcripts relative to activated DMSO, PBMCs from 1 participant per drug, read-out: Completed (PolyA) IC50
Experimental: The IC50 was determined based on the reduction in completed (PolyA) as well as multiply spliced (TatRev) HIV transcripts relative to activated DMSO (Table 1).
Figure 2 Dose-response curves of LPAs. Dose-response curves for each drug were generated in PBMCs from 1 ART-suppressed study participant per drug. PBMCs were aliquoted into wells at 6 × 10^6 cells/well, activated, and cultured with antiretrovirals in the presence of DMSO alone (no drug) or varying concentrations of individual drugs in DMSO. After 24 hours, the levels of polyadenylated and multiply spliced HIV transcripts were quantified by RT-ddPCR, normalized to 1 μg of total cellular RNA, and expressed as a percentage of the activated DMSO control (% of activated DMSO).

With `CCc1cnn2c(NCc3ccc[n+]([O-])c3)cc(N3CCCC[C@H]3CCO)nc12` [dinaciclib] the IC50 was 0.55 nM.
